Values of other authors in patent US20250312353A1, “DRUG R[…] TREATMENT OF […] MALFORMATIONS” (University of South Carolina, priority 2024, published 2025).
At least one compound was matched to its structure with a doubt left.

System: laser-induced choroidal neovascularization
Conditions: by decreasing VEGF induced proliferation and migration

Question: Which “effect on laser-induced choroidal neovascularization” value does the source give for `CC1=C(O)C(=O)C=C2C1=CC=C1[C@@]2(C)CC[C@@]2(C)[C@@H]3C[C@](C)(C(=O)O)CC[C@]3(C)CC[C@]12C` [celastrol] here?
Answer: Its value is “inhibit laser-induced choroidal neovascularization”.
